The source of these data is patent US20190225662A1.

Sequences of proteins named here, by UniProt entry; tags and fusion partners are left off. A change or cut given only in a name is not applied to a line headed by its entry. Residues count along the entry.
UniProt Q9UBS5, residues 26-160: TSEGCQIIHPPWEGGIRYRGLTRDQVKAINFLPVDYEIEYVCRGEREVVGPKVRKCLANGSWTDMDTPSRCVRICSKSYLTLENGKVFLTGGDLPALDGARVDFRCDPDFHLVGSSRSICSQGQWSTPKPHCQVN
UniProt P12023: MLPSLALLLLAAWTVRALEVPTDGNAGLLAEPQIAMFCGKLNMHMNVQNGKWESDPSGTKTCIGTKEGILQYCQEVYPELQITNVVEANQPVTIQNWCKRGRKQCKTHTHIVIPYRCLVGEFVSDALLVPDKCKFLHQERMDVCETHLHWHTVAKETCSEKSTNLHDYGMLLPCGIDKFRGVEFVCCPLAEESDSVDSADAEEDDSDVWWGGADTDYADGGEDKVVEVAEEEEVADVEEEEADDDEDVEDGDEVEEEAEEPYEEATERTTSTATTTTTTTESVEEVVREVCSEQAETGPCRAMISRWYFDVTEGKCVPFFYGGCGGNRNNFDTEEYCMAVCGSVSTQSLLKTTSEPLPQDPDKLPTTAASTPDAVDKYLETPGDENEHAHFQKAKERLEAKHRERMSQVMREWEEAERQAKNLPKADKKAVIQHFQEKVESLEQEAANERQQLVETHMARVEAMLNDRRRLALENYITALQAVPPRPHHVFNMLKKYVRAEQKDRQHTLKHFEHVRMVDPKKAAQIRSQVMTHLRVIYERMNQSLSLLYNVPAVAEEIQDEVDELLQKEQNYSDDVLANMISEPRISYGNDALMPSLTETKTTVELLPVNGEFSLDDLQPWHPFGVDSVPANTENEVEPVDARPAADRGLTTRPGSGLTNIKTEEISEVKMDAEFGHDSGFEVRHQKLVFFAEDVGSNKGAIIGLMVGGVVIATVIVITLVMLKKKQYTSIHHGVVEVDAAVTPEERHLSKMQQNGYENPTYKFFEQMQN

Assay [1] has as its target sushi domains of GABABR1a (protein used in BioLayer Interferometry) (UniProt Q9UBS5). Briefly: BioLayer Interferometry. (In general: Biolayer interferometry detects binding as a change in optical thickness at a sensor tip.)
The target is the same in assay [2]. Briefly: BioLayer Interferometry; which partner is on the sensor and the concentrations are not given.

These are yes or no findings as the source states them, for the method shown. Some binding calls cover weakened binding; strength is not graded here.

As to “sAPPα (Fc cleaved) (from UniProt P12023 18-687) (ligand)”, the binding result in assay [1] and in assay [2] was “binds” each time.
